# Laboratory results published in paper PMC6359543, “Efficacy of Azatyrosine-Phenylbutyric Hydroxamides, a Histone Deacetylase Inhibitor, on Chemotherapy-Induced Gastrointestinal Mucositis” (International Journal of Molecular Sciences, 2019).
# Target: Pan HDAC enzyme
# Assay: HDAC fluorometric activity assay, pan HDAC
# Type: biochemical
# Experimental: Pan HDAC enzyme (all the known class I HDACs-HDAC1, HDAC2, HDAC3, HDAC8 and class II HDACs 4-7, 9 and 10), HDAC subtype 1, 3 and 4 activity were determined by using the HDAC fluorometric cellular activity assay (Enzo Life Sciences, Farmingdale, NY, USA) according to the manufacturer’s protocol. […] Percent activity for each of the test compounds is calculated as follows:
# Activity = {(Sc − B)/(S° − B)} × 100. Wherein, S c represents the signal measured in the presence of AzP or SAHA, S° denotes signal measured in the absence of AzP or SAHA, B is measured in blank wells containing the medium alone. […] IC50 was then calculated and represented as mean ± SD.
smiles,measurement,value
"O=C(CCCCCCC(=O)Nc1ccccc1)NO [SAHA, suberoylanilide hydroxamic acid, reference compound]",IC50,84.5 ± 13.7 nM
